Measurements reported in paper PMC4579850.
Results are given in words; binding and its absence hold for the method and conditions named. In cells and extracts the contact can be indirect. Some binding calls cover weakened binding; strength is not graded here. Where a sequence is shown, tags or fusion partners need not be part of it.

Sequences of proteins named here, by UniProt entry; tags and fusion partners are left off.
UniProt P38634: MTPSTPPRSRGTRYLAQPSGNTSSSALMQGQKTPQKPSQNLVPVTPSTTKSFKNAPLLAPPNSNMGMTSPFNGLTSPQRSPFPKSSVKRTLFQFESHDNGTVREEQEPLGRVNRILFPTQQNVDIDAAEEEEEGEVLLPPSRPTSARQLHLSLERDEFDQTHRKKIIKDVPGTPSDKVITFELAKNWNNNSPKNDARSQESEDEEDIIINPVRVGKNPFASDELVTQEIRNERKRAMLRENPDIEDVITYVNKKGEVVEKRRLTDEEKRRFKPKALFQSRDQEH

Molecular target: T1, Mpk1-HA3 (Saccharomyces cerevisiae) (UniProt Q00772)
T1 sequence: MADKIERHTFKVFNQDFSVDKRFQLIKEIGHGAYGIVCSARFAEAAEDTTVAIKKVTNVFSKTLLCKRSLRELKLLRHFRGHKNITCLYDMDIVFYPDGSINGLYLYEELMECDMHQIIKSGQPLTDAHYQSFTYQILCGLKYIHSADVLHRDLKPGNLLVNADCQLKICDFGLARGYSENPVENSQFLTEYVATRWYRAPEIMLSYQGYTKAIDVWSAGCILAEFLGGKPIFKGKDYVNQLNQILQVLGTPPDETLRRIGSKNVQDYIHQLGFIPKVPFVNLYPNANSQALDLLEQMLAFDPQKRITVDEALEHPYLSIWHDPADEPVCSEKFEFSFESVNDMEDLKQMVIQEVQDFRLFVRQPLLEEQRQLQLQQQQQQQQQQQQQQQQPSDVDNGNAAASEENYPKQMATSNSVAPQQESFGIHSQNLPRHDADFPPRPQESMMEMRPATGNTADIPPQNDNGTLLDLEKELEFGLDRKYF
Experiment: co-IP; cells untreated (0 min) or rapamycin-treated (20 and 40 min), fixed 20 min with 1% formaldehyde and quenched with 0.3 M glycine; lysis buffer 50 mM TRIS pH 7.5, 1 mM EDTA, 150 mM NaCl, 0.5% NP40; Mpk1-HA3 immunoprecipitated with anti-HA magnetic matrix, Sic1-myc13 detected with anti-c-Myc; empty vector as control

binding: binds
Substance: Sic1-myc13 (from UniProt P38634 1-284)
